Results reported in article PMC7819943, “Rice protein-binding microarrays: a tool to detect cis-acting elements near promoter regions in rice”.
The other results are listed elsewhere or left out.

Chains of the proteins cited; added tags and fusions are not shown.
UniProt Q0JBA9, entry or part of it: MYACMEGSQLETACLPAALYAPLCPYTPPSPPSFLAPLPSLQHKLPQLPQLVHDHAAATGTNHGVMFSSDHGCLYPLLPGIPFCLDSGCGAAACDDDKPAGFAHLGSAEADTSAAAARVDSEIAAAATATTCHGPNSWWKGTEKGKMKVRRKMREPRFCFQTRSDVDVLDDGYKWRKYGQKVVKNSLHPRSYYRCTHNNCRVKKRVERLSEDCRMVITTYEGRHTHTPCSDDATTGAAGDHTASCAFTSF

Biological target: OsWRKY34 (Oryza sativa, UniProt Q0JBA9 1-250)
Assay: protein-binding microarray (RPBM); PBS, 2% BSA, 51.3 ng/ul salmon testes DNA, 50 uM zinc acetate, 200 nM TF, 25 C, 1 h; high values mean tight binding
Conditions: protein: recombinant; tags: N-terminal polyhistidine and DsRed monomer fusion (pET32a); label: CyDye5-dUTP incorporated in the synthesized complementary strand; 3' TTTTT single-stranded linker to array surface; dsDNA, one strand shown
In short: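 A custom Agilent array was converted to double-stranded form by primer extension with Cy5-dUTP and blocked with 2% BSA. Protein at 200 nM in PBS with 2% BSA, salmon testes DNA and 50 µM zinc acetate was applied for 1 h at 25 °C, followed by washing. The proteins were polyhistidine–DsRed N-terminal fusions of transcription factors, expressed in E. coli BL21-CodonPlus and Ni–NTA-purified. The binding signal is per-feature fluorescence intensity (arbitrary units) from an Axon 4000B scanner.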

Sequence	binding signal
CATGATTTTTAGATCTCTTGTGGTAAATTTTGCCTTTTTTCGGAGTCACCTAGTGCAG	9660 fluorescence intensity (a.u.)
GAAGGTACTACGGCATATTGTGATGAAAATGTTTCCGCCTCGGAGTCACCTAGTGCAG	8080 fluorescence intensity (a.u.)
TAACTGTATTTTAAATTATGCTAGGACATTGCTTTTTTTGCGGAGTCACCTAGTGCAG	8290 fluorescence intensity (a.u.)
CTTTACCACTGGCCATTTACTAAAACCTCTCCATGATATTCGGAGTCACCTAGTGCAG	10800 fluorescence intensity (a.u.)
GACCGTCGCGTCCATCTGCACTGCCACCTGCACGGCAGCCCGGAGTCACCTAGTGCAG	10000 fluorescence intensity (a.u.)
CAACTCAACTGCACCCTCTCTTTTGTTGTACTTTTCTTTGCGGAGTCACCTAGTGCAG	9070 fluorescence intensity (a.u.)
CCGACTCAACCATTGCATGACACTACTGTTATTTTCCTAGCGGAGTCACCTAGTGCAG	9900 fluorescence intensity (a.u.)
TTGTTTCATCGCACCTCTTGATTACTGATAATTTCCTATACGGAGTCACCTAGTGCAG	9340 fluorescence intensity (a.u.)
TTCTCCGACGAAGCCCATCCTTGGCGAAGCCCGTGTGTTCCGGAGTCACCTAGTGCAG	8080 fluorescence intensity (a.u.)
CGCCGTCCATCTCCATTAATGCCTCCATCCACCTCGCCCACGGAGTCACCTAGTGCAG	14400 fluorescence intensity (a.u.)
GTCGTCGTCGTCGTCACCGGGTCTTCGTCGAGACCCTGACCGGAGTCACCTAGTGCAG	8050 fluorescence intensity (a.u.)
GCGCTTGTGACGCGCGCGTTTGGTGCTGTGGACTGTATGTCGGAGTCACCTAGTGCAG	8110 fluorescence intensity (a.u.)
AACCCTCTCCATTTGCAAATCGCAACCATCTCGTCAACAACGGAGTCACCTAGTGCAG	11100 fluorescence intensity (a.u.)
GATGAACACCAGGTCAACACCGCCATGTCAACGCCACATTCGGAGTCACCTAGTGCAG	8160 fluorescence intensity (a.u.)
ATATCTTCAACTCACCGTAATGGACAAAACATTTAAAATACGGAGTCACCTAGTGCAG	12700 fluorescence intensity (a.u.)
CCAAGTACATTTTTTTCGTTTAATCATTTTTTCATCTTGTCGGAGTCACCTAGTGCAG	11800 fluorescence intensity (a.u.)
TTGCCCATTCTTGTCAAGCGGAGCAGAGTACACCGCCTACCGGAGTCACCTAGTGCAG	8090 fluorescence intensity (a.u.)
TCACCGATCCGCGTACTCTCTCCTCATTGGCTGCCTCCTCCGGAGTCACCTAGTGCAG	9060 fluorescence intensity (a.u.)
CCTCCACTCGTTCCTACTACTTCCTGGTTGCATTCGCCGCCGGAGTCACCTAGTGCAG	8090 fluorescence intensity (a.u.)
GGACTAACAAGTGGGCCCATATTTTTTTATTTTATCCTTTCGGAGTCACCTAGTGCAG	9900 fluorescence intensity (a.u.)
TCCTTTCCTTTCCTTCTCCACTCCGCCATCCGCAACCGCCCGGAGTCACCTAGTGCAG	11100 fluorescence intensity (a.u.)

Sequence	binding signal
ATTCCCTTGCGTTTTGATCGTGTAGCCCAATACGACGGCCCGGAGTCACCTAGTGCAG	9340 fluorescence intensity (a.u.)
AGCCCATTTATATCTCACGTTTCATTGAAGTCCATTTTTTCGGAGTCACCTAGTGCAG	13900 fluorescence intensity (a.u.)
ATGGGAGGTGGGTGGTACCGTGGTGGTGGTCGCAGATCTGCGGAGTCACCTAGTGCAG	27200 fluorescence intensity (a.u.)
TAGCCCAGTTTGTATAATAGAATTTGTTATTTATTTGCGTCGGAGTCACCTAGTGCAG	8410 fluorescence intensity (a.u.)
GGTCTCGTTCCCGCCGCATTTGCTTAACATTCTCAAACCGCGGAGTCACCTAGTGCAG	8420 fluorescence intensity (a.u.)
TTCATTCGTACTGGTACATGCATTCGCATCTTCTTCGCCTCGGAGTCACCTAGTGCAG	9420 fluorescence intensity (a.u.)
CATCGTCCACCCATGTTCCGCCGCCATATCCGCTCTCCGCCGGAGTCACCTAGTGCAG	10900 fluorescence intensity (a.u.)
ATCAGGCCCACGGCCCAATCGCCGTCCACCACCCACCACCCGGAGTCACCTAGTGCAG	8690 fluorescence intensity (a.u.)
ACCCCAACCCATCCACCGAGACAGGAATGCTCTCACGCAACGGAGTCACCTAGTGCAG	8310 fluorescence intensity (a.u.)
ATCTACTACACACATGACACATTCCCATCTTTCCAATGTCCGGAGTCACCTAGTGCAG	10700 fluorescence intensity (a.u.)
TTGTTTAACACCAAGGCTCTGTTCGTTCTCTCCCAGTTGGCGGAGTCACCTAGTGCAG	9110 fluorescence intensity (a.u.)
GCGGCCATCTTCTCGCTCGATCTCCCGCTCCCGCGGAACCCGGAGTCACCTAGTGCAG	9140 fluorescence intensity (a.u.)
AAAATCCAGCTGCCTCGAGCTCCTTTTCCGTTTCTTTCCCCGGAGTCACCTAGTGCAG	8470 fluorescence intensity (a.u.)
TTTAATAAGCGACGGTCTTTGACTTTTCGACATATGTCTGCGGAGTCACCTAGTGCAG	10100 fluorescence intensity (a.u.)
CGGAGGCGAGTGGGTGGGTGGTGGTCCAGTGCGGTGGTGCCGGAGTCACCTAGTGCAG	9800 fluorescence intensity (a.u.)
ATTTCTGCTACTATTTTCGAAATATGTTATTATTTTCATTCGGAGTCACCTAGTGCAG	9110 fluorescence intensity (a.u.)
GTCCATGGGTCGCTTCCTGGCCGAGGCTACCGTCGTCGCACGGAGTCACCTAGTGCAG	8930 fluorescence intensity (a.u.)
CTACTTCATTTTACACTTGCTGCTTTAATTTATTTACCTTCGGAGTCACCTAGTGCAG	11900 fluorescence intensity (a.u.)
CCGCGCCGCTCTGCCGTCCCAGCCATCGCCGCCGCCCGCACGGAGTCACCTAGTGCAG	8200 fluorescence intensity (a.u.)
GATAGATTTGTAGTTGTACATTTAGTGTAGTTAAGTTGTACGGAGTCACCTAGTGCAG	8040 fluorescence intensity (a.u.)
ATTCTATACTTTTGTTTCCCTATCATTTGACGCTTTACACCGGAGTCACCTAGTGCAG	10000 fluorescence intensity (a.u.)

Sequence	binding signal
CAATCTTCTTGGTACTTCACTTCCACCACTGCTCCTTTCTCGGAGTCACCTAGTGCAG	12500 fluorescence intensity (a.u.)
CAACGGCGAGGATGGCTTGCATGCGGCGGTGGCGGGAGGGCGGAGTCACCTAGTGCAG	8910 fluorescence intensity (a.u.)
GGGTTGTGGTTGTTGTACGTTGTTGTTGACGGCGATGGTTCGGAGTCACCTAGTGCAG	12000 fluorescence intensity (a.u.)
ATGATATATGCTTATCCAAACACCACCAAGGGCATCATGACGGAGTCACCTAGTGCAG	8230 fluorescence intensity (a.u.)
TGTTCTGCTGCCTCGAGCCCCGCCCCGCCATCCTACTGCTCGGAGTCACCTAGTGCAG	8040 fluorescence intensity (a.u.)
GAACTTCGCCGCTGCCCTACTCGAGGTCTTCCTCTCCACCCGGAGTCACCTAGTGCAG	8210 fluorescence intensity (a.u.)
TCCTCCCTTTTGCGGCTTGCGAATGTCAACACACTGTTTTCGGAGTCACCTAGTGCAG	9910 fluorescence intensity (a.u.)
CTAATGTATGTTCAGGTGTACGCATGGATCCTAATGCGAACGGAGTCACCTAGTGCAG	8620 fluorescence intensity (a.u.)
TCCGTAAATCCAACATGGCACTATTACCGCCGGCTTAAATCGGAGTCACCTAGTGCAG	56000 fluorescence intensity (a.u.)
GGTGGTGGTGGTGGTGGTGGTGGTGTAGGAGGAGGAGGAGCGGAGTCACCTAGTGCAG	27600 fluorescence intensity (a.u.)
GCCCACCGTTCATGGTCATAGGCCACCTGTTGCCTTCACACGGAGTCACCTAGTGCAG	9190 fluorescence intensity (a.u.)
TTTGACTTTTGAGGTTTTGCCCTTCTGATCAGACCGCACTCGGAGTCACCTAGTGCAG	8070 fluorescence intensity (a.u.)
GGCTTTGACTTCTCACCATAGAAGAACCTTCTCATGGTCGCGGAGTCACCTAGTGCAG	8490 fluorescence intensity (a.u.)
CGCCGCTGCTCTCGTTGTTGTCCCGCTGCGGCGCTGTGGTCGGAGTCACCTAGTGCAG	12800 fluorescence intensity (a.u.)
ACTACTCCCACCTCGCCGCCCGCCGCCGCCGCCGCCGGGTCGGAGTCACCTAGTGCAG	8240 fluorescence intensity (a.u.)
GTACTCCTGGTCCGCATCCACCGTCCATCCGCGTACCGCACGGAGTCACCTAGTGCAG	11000 fluorescence intensity (a.u.)
CCTATATTTAATACTTCATGCATGTGTTCAAACGTTCGATCGGAGTCACCTAGTGCAG	8890 fluorescence intensity (a.u.)
CTCCTCAACAACACTCTCAGGTCAATCTCGGCCGACCCAACGGAGTCACCTAGTGCAG	8610 fluorescence intensity (a.u.)
TCATCTCATCTCTCTCGTTTTTATATGCACGTTTTTCAAACGGAGTCACCTAGTGCAG	9530 fluorescence intensity (a.u.)
CGCGCCCCGCCGCCACCATCCGCATCCACCATTCCATTCACGGAGTCACCTAGTGCAG	8880 fluorescence intensity (a.u.)
GGGGTGGCGGGGACGGGAAAGGAAATCTTGTAGACTGCGTCGGAGTCACCTAGTGCAG	8380 fluorescence intensity (a.u.)

Sequence	binding signal
TTCTTTCGGTTTTTTTAATCCATTTTGCAACACTCTCTGTCGGAGTCACCTAGTGCAG	12900 fluorescence intensity (a.u.)
ATTTGTTCGGTCTTTCTCTCATCCCTACATATGGCATTCACGGAGTCACCTAGTGCAG	8070 fluorescence intensity (a.u.)
TCTTCGTACTCGCCTCTCTCCGCGCCCTCCTCCGCCGCCGCGGAGTCACCTAGTGCAG	12600 fluorescence intensity (a.u.)
ACTTATTTTCCTTTTTTGGGGTTGCCTCTTGCAGTTCATCCGGAGTCACCTAGTGCAG	8930 fluorescence intensity (a.u.)
CTTTTTTTTTTCTTTGTTTCTTGTCCCCAGGCAATGACCGCGGAGTCACCTAGTGCAG	9410 fluorescence intensity (a.u.)
TGCAAGTTTGTTTTCACTCATCTTATTTGTTTAGGTTTGTCGGAGTCACCTAGTGCAG	12400 fluorescence intensity (a.u.)
GTCGATATGTTTGTAGTAATTTTTTTTGTGCTTCCTTTATCGGAGTCACCTAGTGCAG	10100 fluorescence intensity (a.u.)
GTTTGTCACTCCTGTCAATTGTTCATCCACTCCATTGATTCGGAGTCACCTAGTGCAG	13100 fluorescence intensity (a.u.)
TTGAGGGTGGGTTTCAGAGGTGTGGGAGGTCGCCTCCATGCGGAGTCACCTAGTGCAG	9420 fluorescence intensity (a.u.)
TCTCCAGCATGTTTCAGTTATTGCATTTGTTTTCTAAAGACGGAGTCACCTAGTGCAG	10600 fluorescence intensity (a.u.)
ACCGCGTCGGCCATCACGTTCCTACAAATCTTGCAGTAGACGGAGTCACCTAGTGCAG	8230 fluorescence intensity (a.u.)
CTCCTGCACGCTGTCAAGTTACCATTTCTTTGGTCTTTTCCGGAGTCACCTAGTGCAG	14200 fluorescence intensity (a.u.)
ACGTGCAGCTTTTTCTCGTCATCCCCGCACCATCGACGAGCGGAGTCACCTAGTGCAG	10600 fluorescence intensity (a.u.)
AAAGCTGGGACCCACCACCTGACGGCCTGACCCCACCATTCGGAGTCACCTAGTGCAG	8100 fluorescence intensity (a.u.)
ATTTTTTTGTCAGTCTGTCCTTACATGTGCCATTTTTTCACGGAGTCACCTAGTGCAG	12400 fluorescence intensity (a.u.)
GACGTGGAGTCGTTGGTGTTTGGTTCAGTATCCTCGCTCTCGGAGTCACCTAGTGCAG	10700 fluorescence intensity (a.u.)
CAAAAGTGGTCCTTGTGTTTGTGTGGCATTAGGATTAGGTCGGAGTCACCTAGTGCAG	9720 fluorescence intensity (a.u.)
GTGTTCCGGTTCAGGCTATTGAGGTCCTTTCGATCACGCGCGGAGTCACCTAGTGCAG	9420 fluorescence intensity (a.u.)
CCGCTGTTCTTATCTTCCCCACTCGTGCCTGGCTCTCTCTCGGAGTCACCTAGTGCAG	8530 fluorescence intensity (a.u.)
TTACGTACTGTAGTTCTATGCTTCTATTGCTGTATGAGCACGGAGTCACCTAGTGCAG	9050 fluorescence intensity (a.u.)
GTACTACCGCCGTGGCCATATCGCTCATTCATGATTCATCCGGAGTCACCTAGTGCAG	8680 fluorescence intensity (a.u.)

Reprinted from the listing for reference:
Sequence	binding signal
CAATCTTCTTGGTACTTCACTTCCACCACTGCTCCTTTCTCGGAGTCACCTAGTGCAG	12500 fluorescence intensity (a.u.)
CAACGGCGAGGATGGCTTGCATGCGGCGGTGGCGGGAGGGCGGAGTCACCTAGTGCAG	8910 fluorescence intensity (a.u.)
GGGTTGTGGTTGTTGTACGTTGTTGTTGACGGCGATGGTTCGGAGTCACCTAGTGCAG	12000 fluorescence intensity (a.u.)

Given in markdown: part of the list above.

| Sequence | binding signal |
| --- | --- |
| CTCCTGCACGCTGTCAAGTTACCATTTCTTTGGTCTTTTCCGGAGTCACCTAGTGCAG | 14200 fluorescence intensity (a.u.) |
| ACGTGCAGCTTTTTCTCGTCATCCCCGCACCATCGACGAGCGGAGTCACCTAGTGCAG | 10600 fluorescence intensity (a.u.) |
